Article PMC11850942

Molecular target: p65(wt)-HA-miniTurbo (human) (UniProt Q04206)

binding: binds
B1: N4BP3 (protein, UniProt O15049 1-544)
chain: MATAPGPAGIAMGSVGSLLERQDFSPEELRAALAGSRGSRQPDGLLRKGLGQREFLSYLHLPKKDSKSTKNTKRAPRNEPADYATLYYREHSRAGDFSKTSLPERGRFDKCRIRPSVFKPTAGNGKGFLSMQSLASHKGQKLWRSNGSLHTLACHPPLSPGPRASQARAQLLHALSLDEGGPEPEPSLSDSSSGGSFGRSPGTGPSPFSSSLGHLNHLGGSLDRASQGPKEAGPPAVLSCLPEPPPPYEFSCSSAEEMGAVLPETCEELKRGLGDEDGSNPFTQVLEERQRLWLAELKRLYVERLHEVTQKAERSERNLQLQLFMAQQEQRRLRKELRAQQGLAPEPRAPGTLPEADPSARPEEEARWEVCQKTAEISLLKQQLREAQAELAQKLAEIFSLKTQLRGSRAQAQAQDAELVRLREAVRSLQEQAPREEAPGSCETDDCKSRGLLGEAGGSEARDSAEQLRAELLQERLRGQEQALRFEQERRTWQEEKERVLRYQREIQGGYMDMYRRNQALEQELRALREPPTPWSPRLESSKI

No constants are given. Whether binding was seen depends on the method and setting. In cells and extracts the contact can be indirect. These calls come from enrichment with a bait or labelling near it, and not all partners need be listed.
